No constants are given. Whether binding was seen depends on the method and setting.
Biological target: CD45 (RA, RB, and RC) on normal T and B cells (human (endogenous in primary human lymphocytes)) (UniProt P08575)
Assay: flow cytometry on cells; soluble CD301-6xHis incubated with primary human lymphocytes (CD4+ T cells, CD19+ B cells, resting/activated T cells); Tn-high Jurkat-TCRβ-/- cells as positive cells (Figures S2C, S2E); only the binder purified

By UniProt entry, the sequences of proteins in these tests, tags left out. Where a name states a change or a piece, a line headed by the entry shows the natural chain unless it says otherwise. Chains listed by the source or under a name are the forms on record and can include a tag or linker.
CD45 (RA, RB, and RC) on normal T and B cells (human (endogenous in primary human lymphocytes)) (P08575, form named): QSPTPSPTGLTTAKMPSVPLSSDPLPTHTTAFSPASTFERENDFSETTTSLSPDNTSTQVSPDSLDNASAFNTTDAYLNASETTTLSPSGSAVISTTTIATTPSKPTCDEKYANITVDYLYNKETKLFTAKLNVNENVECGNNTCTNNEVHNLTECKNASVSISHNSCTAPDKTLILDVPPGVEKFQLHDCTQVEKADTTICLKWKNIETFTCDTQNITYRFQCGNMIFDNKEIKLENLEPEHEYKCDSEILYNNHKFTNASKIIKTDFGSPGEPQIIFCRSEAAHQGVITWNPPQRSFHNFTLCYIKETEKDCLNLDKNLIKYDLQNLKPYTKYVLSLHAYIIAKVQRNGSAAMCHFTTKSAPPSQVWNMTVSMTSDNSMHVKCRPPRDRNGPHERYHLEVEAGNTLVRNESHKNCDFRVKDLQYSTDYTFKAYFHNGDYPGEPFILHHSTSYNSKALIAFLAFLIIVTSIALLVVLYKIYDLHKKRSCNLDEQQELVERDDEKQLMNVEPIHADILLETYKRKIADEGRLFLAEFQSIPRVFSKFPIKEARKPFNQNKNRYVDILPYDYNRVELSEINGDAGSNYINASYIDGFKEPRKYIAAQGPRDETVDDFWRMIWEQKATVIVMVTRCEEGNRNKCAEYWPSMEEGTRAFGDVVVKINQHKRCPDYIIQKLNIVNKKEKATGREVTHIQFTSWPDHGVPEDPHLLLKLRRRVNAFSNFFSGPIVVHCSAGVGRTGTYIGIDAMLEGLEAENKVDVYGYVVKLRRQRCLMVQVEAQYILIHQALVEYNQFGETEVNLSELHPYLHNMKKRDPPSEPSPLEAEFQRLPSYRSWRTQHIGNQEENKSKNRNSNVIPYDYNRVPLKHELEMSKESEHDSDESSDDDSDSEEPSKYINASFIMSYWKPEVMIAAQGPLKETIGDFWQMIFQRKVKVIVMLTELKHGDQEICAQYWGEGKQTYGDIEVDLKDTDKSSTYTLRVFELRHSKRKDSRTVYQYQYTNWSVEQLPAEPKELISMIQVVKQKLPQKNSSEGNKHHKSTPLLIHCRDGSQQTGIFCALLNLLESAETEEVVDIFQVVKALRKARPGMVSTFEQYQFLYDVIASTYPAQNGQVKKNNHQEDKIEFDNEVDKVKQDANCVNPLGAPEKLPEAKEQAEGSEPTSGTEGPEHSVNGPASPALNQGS

For “CD301-6xHis (soluble human CD301) (from UniProt Q8IUN9-1) (receptor)”, the binding was “no binding”.

Reference: publication PMC12767472
